# Reference: paper PMC8384837
# Changes are numbered by the printed parent chain. This is one part of the list. For part of these data: At the low end of the ranking the order means little. For part of these data: The exact form of the protein is not confirmed.
# Columns and labels:
# Details in all cases: yeast three-hybrid, YBZ-1, SC-Leu-His + 0.5 mM 3-AT, 4 days
# [1] = molecular target: T1, PUM1 PUF domain R2-VFQ R3-THE R4-TFR N899V + Y900F + C935T + R936H + Q939E + N971T + H972F + Q975R (UniProt Q14671)
# T1 sequence: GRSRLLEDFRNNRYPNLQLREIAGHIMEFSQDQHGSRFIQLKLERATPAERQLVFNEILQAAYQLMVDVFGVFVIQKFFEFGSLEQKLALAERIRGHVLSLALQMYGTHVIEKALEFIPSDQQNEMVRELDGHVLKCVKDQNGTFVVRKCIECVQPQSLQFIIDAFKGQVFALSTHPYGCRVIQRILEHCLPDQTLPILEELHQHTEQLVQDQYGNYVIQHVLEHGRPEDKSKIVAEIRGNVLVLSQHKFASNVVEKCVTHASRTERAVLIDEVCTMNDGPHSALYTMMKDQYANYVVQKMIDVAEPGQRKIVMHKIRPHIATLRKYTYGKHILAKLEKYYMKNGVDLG
# [2] = molecular target: T2, PUM1 PUF domain R3-THE R4-TFR C935T + R936H + Q939E + N971T + H972F + Q975R (UniProt Q14671)
# T2 sequence: T1 sequence with V72N, F73Y
# [3] = molecular target: T3, PUM1 PUF domain R3-THE R4-TFR R7-NPG C935T + R936H + Q939E + N971T + H972F + Q975R + S1079N + N1080P + E1083G (Homo sapiens) (UniProt Q14671)
# T3 sequence: T1 sequence with V72N, F73Y, S252N, N253P, E256G
# [4] = molecular target: T4, PUM1 PUF domain R6-SWD R7-NPG N1043S + Y1044W + Q1047D + S1079N + N1080P + E1083G (Homo sapiens) (UniProt Q14671)
# T4 sequence: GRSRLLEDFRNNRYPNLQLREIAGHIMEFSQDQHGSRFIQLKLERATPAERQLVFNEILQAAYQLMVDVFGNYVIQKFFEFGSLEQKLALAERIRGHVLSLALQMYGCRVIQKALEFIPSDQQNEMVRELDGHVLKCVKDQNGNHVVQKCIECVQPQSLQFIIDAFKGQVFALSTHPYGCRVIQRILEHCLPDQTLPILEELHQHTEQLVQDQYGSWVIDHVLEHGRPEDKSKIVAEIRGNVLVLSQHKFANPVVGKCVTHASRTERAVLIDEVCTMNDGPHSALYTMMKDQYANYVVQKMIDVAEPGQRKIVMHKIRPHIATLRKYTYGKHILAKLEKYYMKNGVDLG
# [5] = molecular target: T5, PUM1 PUF domain R5-PHQ R6-SWD C1007P + R1008H + N1043S + Y1044W + Q1047D (UniProt Q14671)
# T5 sequence: T4 sequence with C180P, R181H, N252S, P253N, G256E
# [6] = molecular target: T6, PUM1 PUF domain R3-THE R4-TFR R7-NPG C935T + R936H + Q939E + N971T + H972F + Q975R + S1079N + N1080P + E1083G (UniProt Q14671)
# T6 sequence: T1 sequence with V72N, F73Y, S252N, N253P, E256G
# [7] = molecular target: T7, PUM1 PUF domain R6-SWD R7-NPG N1043S + Y1044W + Q1047D + S1079N + N1080P + E1083G (UniProt Q14671)
# T7 sequence: T4 sequence
sequence,measurement,setting,value
GGCUAGAACUAGUGGAUCCCCCGGCGCCCGGCGGCUCGAGCCCGGGUAAGUCUCCGUAGUCUGCAUGCCGCCGGGCGCCAUGCCUGCAGGUCGACUCUAGAAAACAUG,binding signal (log2 enrichment (interaction score)),[1],-4.74
same,binding signal (log2 enrichment (interaction score)),[2],-6.98
same,binding signal (log2 enrichment (interaction score)),[3],-1.92
same,binding signal (log2 enrichment (interaction score)),[4],-1.75
GGCUAGAACUAGUGGAUCCCCCGGCGCCCGGCGGCUCGAGCCCGGGUAAGUGGAAGUUGUCUGCAUGCCGCCGGGCGCCAUGCCUGCAGGUCGACUCUAGAAAACAUG,binding signal (log2 enrichment (interaction score)),[1],-6.66
same,binding signal (log2 enrichment (interaction score)),[2],-5.72
same,binding signal (log2 enrichment (interaction score)),[5],-7.68
GGCUAGAACUAGUGGAUCCCCCGGCGCCCGGCGGCUCGAGCCCGGGUAAGAAGACCAAGUCUGCAUGCCGCCGGGCGCCAUGCCUGCAGGUCGACUCUAGAAAACAUG,binding signal (log2 enrichment (interaction score)),[1],-5.76
same,binding signal (log2 enrichment (interaction score)),[2],-5.73
same,binding signal (log2 enrichment (interaction score)),[5],< -7.13
GGCUAGAACUAGUGGAUCCCCCGGCGCCCGGCGGCUCGAGCCCGGGUAAGGGUAAGUAGUCUGCAUGCCGCCGGGCGCCAUGCCUGCAGGUCGACUCUAGAAAACAUG,binding signal (log2 enrichment (interaction score)),[1],-4.58
same,binding signal (log2 enrichment (interaction score)),[2],-7.55
same,binding signal (log2 enrichment (interaction score)),[6],< -2.55
same,binding signal (log2 enrichment (interaction score)),[5],-7.42
GGCUAGAACUAGUGGAUCCCCCGGCGCCCGGCGGCUCGAGCCCGGGUAAGUGUAUUCAGUCUGCAUGCCGCCGGGCGCCAUGCCUGCAGGUCGACUCUAGAAAACAUG,binding signal (log2 enrichment (interaction score)),[1],-6.36
same,binding signal (log2 enrichment (interaction score)),[2],-6.95
same,binding signal (log2 enrichment (interaction score)),[6],-2.77
same,binding signal (log2 enrichment (interaction score)),[5],-6.94
GGCUAGAACUAGUGGAUCCCCCGGCGCCCGGCGGCUCGAGCCCGGGUAAGUAGACGCGGUCUGCAUGCCGCCGGGCGCCAUGCCUGCAGGUCGACUCUAGAAAACAUG,binding signal (log2 enrichment (interaction score)),[1],-4.92
same,binding signal (log2 enrichment (interaction score)),[3],-1.75
GGCUAGAACUAGUGGAUCCCCCGGCGCCCGGCGGCUCGAGCCCGGGUAAGUAGCAAUAGUCUGCAUGCCGCCGGGCGCCAUGCCUGCAGGUCGACUCUAGAAAACAUG,binding signal (log2 enrichment (interaction score)),[1],-5.29
same,binding signal (log2 enrichment (interaction score)),[2],-7.31
same,binding signal (log2 enrichment (interaction score)),[4],-1.45
GGCUAGAACUAGUGGAUCCCCCGGCGCCCGGCGGCUCGAGCCCGGGUAAGUUCCCGAGGUCUGCAUGCCGCCGGGCGCCAUGCCUGCAGGUCGACUCUAGAAAACAUG,binding signal (log2 enrichment (interaction score)),[1],-4.85
same,binding signal (log2 enrichment (interaction score)),[3],-1.41
GGCUAGAACUAGUGGAUCCCCCGGCGCCCGGCGGCUCGAGCCCGGGUAAGUGCAACGGGUCUGCAUGCCGCCGGGCGCCAUGCCUGCAGGUCGACUCUAGAAAACAUG,binding signal (log2 enrichment (interaction score)),[1],-4.79
same,binding signal (log2 enrichment (interaction score)),[2],< -5.81
same,binding signal (log2 enrichment (interaction score)),[5],-8.09
GGCUAGAACUAGUGGAUCCCCCGGCGCCCGGCGGCUCGAGCCCGGGUAAGUGUAUAAAGUCUGCAUGCCGCCGGGCGCCAUGCCUGCAGGUCGACUCUAGAAAACAUG,binding signal (log2 enrichment (interaction score)),[1],-5.39
same,binding signal (log2 enrichment (interaction score)),[2],< -6.79
same,binding signal (log2 enrichment (interaction score)),[5],-6.28
GGCUAGAACUAGUGGAUCCCCCGGCGCCCGGCGGCUCGAGCCCGGGUAAGUUUAUGAGGUCUGCAUGCCGCCGGGCGCCAUGCCUGCAGGUCGACUCUAGAAAACAUG,binding signal (log2 enrichment (interaction score)),[1],-5.71
same,binding signal (log2 enrichment (interaction score)),[3],-1.7
GGCUAGAACUAGUGGAUCCCCCGGCGCCCGGCGGCUCGAGCCCGGGUAAGUCGAGCUAGUCUGCAUGCCGCCGGGCGCCAUGCCUGCAGGUCGACUCUAGAAAACAUG,binding signal (log2 enrichment (interaction score)),[1],-3.69
same,binding signal (log2 enrichment (interaction score)),[2],< -4.27
same,binding signal (log2 enrichment (interaction score)),[5],< -6.93
same,binding signal (log2 enrichment (interaction score)),[4],-1.94
GGCUAGAACUAGUGGAUCCCCCGGCGCCCGGCGGCUCGAGCCCGGGUAAGCGGACAAAGUCUGCAUGCCGCCGGGCGCCAUGCCUGCAGGUCGACUCUAGAAAACAUG,binding signal (log2 enrichment (interaction score)),[1],-3.61
same,binding signal (log2 enrichment (interaction score)),[3],-1.53
GGCUAGAACUAGUGGAUCCCCCGGCGCCCGGCGGCUCGAGCCCGGGUAAGUUGAGUUUGUCUGCAUGCCGCCGGGCGCCAUGCCUGCAGGUCGACUCUAGAAAACAUG,binding signal (log2 enrichment (interaction score)),[1],-5.43
same,binding signal (log2 enrichment (interaction score)),[3],< -1.2
GGCUAGAACUAGUGGAUCCCCCGGCGCCCGGCGGCUCGAGCCCGGGUAAGUUUUGAUAGUCUGCAUGCCGCCGGGCGCCAUGCCUGCAGGUCGACUCUAGAAAACAUG,binding signal (log2 enrichment (interaction score)),[1],-6.01
same,binding signal (log2 enrichment (interaction score)),[2],-7.23
same,binding signal (log2 enrichment (interaction score)),[5],< -8.07
same,binding signal (log2 enrichment (interaction score)),[7],-2.02
GGCUAGAACUAGUGGAUCCCCCGGCGCCCGGCGGCUCGAGCCCGGGUAAGUGCUAAUAGUCUGCAUGCCGCCGGGCGCCAUGCCUGCAGGUCGACUCUAGAAAACAUG,binding signal (log2 enrichment (interaction score)),[1],-5.09
same,binding signal (log2 enrichment (interaction score)),[2],< -7.41
same,binding signal (log2 enrichment (interaction score)),[5],-8.26
GGCUAGAACUAGUGGAUCCCCCGGCGCCCGGCGGCUCGAGCCCGGGUAAGUUAAAGGAGUCUGCAUGCCGCCGGGCGCCAUGCCUGCAGGUCGACUCUAGAAAACAUG,binding signal (log2 enrichment (interaction score)),[1],-5.61
same,binding signal (log2 enrichment (interaction score)),[2],-7.55
same,binding signal (log2 enrichment (interaction score)),[5],-6.84

# Random excerpt: 2 entries already listed.
sequence,measurement,setting,value
GGCUAGAACUAGUGGAUCCCCCGGCGCCCGGCGGCUCGAGCCCGGGUAAGUUUUGAUAGUCUGCAUGCCGCCGGGCGCCAUGCCUGCAGGUCGACUCUAGAAAACAUG,binding signal (log2 enrichment (interaction score)),[2],-7.23
GGCUAGAACUAGUGGAUCCCCCGGCGCCCGGCGGCUCGAGCCCGGGUAAGAAGACCAAGUCUGCAUGCCGCCGGGCGCCAUGCCUGCAGGUCGACUCUAGAAAACAUG,binding signal (log2 enrichment (interaction score)),[1],-5.76
